Experimental data: PubChem BioAssay AID602196 (INSERM, 2012)

Test: 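Genes whose knock-down alters cisplatin killing of lung cancer cells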
System: human A549 lung cancer cells
Reagent: siRNA pair against human genes
Time to read-out: 48 h transfection before cisplatin; time from cisplatin to read-out not stated
Conditions: cisplatin at a dose killing half of control-siRNA cells; exact dose and duration not given
Measurement: 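Cisplatin cell death as a shift from the 50% death seen with control siRNA; siRNAs toxic or growth-blocking alone scored 0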
Reading the numbers: two-siRNA summed score (-2 to +2): higher = both siRNAs protect from cisplatin killing; -2 means both sensitise
Call rule: 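siRNAs harmful alone (LDH or WST-1) get 0; others get +1 for less and -1 for more cisplatin killing; genes are active when the two siRNAs give the same sign, summing to ±2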
Calls: active = both siRNAs shift cisplatin killing the same way; inactive = no consistent shift, or siRNA harmful alone
Here is a random part of about 23,000 reagents. 455 of all reagents (2%) count as active. 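Active includes both protection and sensitisation; some change values fall well beyond the stated -50 to +50 range.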 Further read-outs or replicates are left out here. Reagent sequences are not shown. The record does not give: the amount of reagent.

{"gene knocked down": "TFAP4", "PubChem SID": "SID131520118", "two-siRNA summed score (-2 to +2)": 1, "Outcome": "inactive"}
{"gene knocked down": "PLD6", "PubChem SID": "SID131518808", "two-siRNA summed score (-2 to +2)": 0, "Outcome": "inactive"}
{"gene knocked down": "LOC387867", "PubChem SID": "SID131518809", "two-siRNA summed score (-2 to +2)": 0, "Outcome": "inactive"}
{"gene knocked down": "GNG4", "PubChem SID": "SID131504039", "two-siRNA summed score (-2 to +2)": 0, "Outcome": "inactive"}
{"gene knocked down": "MTTP", "PubChem SID": "SID131501042", "two-siRNA summed score (-2 to +2)": -1, "Outcome": "inactive"}
{"gene knocked down": "PCDHGC5", "PubChem SID": "SID131518457", "two-siRNA summed score (-2 to +2)": 0, "Outcome": "inactive"}
{"gene knocked down": "LOC387870", "PubChem SID": "SID131504555", "two-siRNA summed score (-2 to +2)": 0, "Outcome": "inactive"}
{"gene knocked down": "H4C1", "PubChem SID": "SID131513325", "two-siRNA summed score (-2 to +2)": 0, "Outcome": "inactive"}
{"gene knocked down": "COL1A2", "PubChem SID": "SID131516338", "two-siRNA summed score (-2 to +2)": 0, "Outcome": "inactive"}
{"gene knocked down": "LOC440665", "PubChem SID": "SID131522937", "two-siRNA summed score (-2 to +2)": 2, "Outcome": "active"}
{"gene knocked down": "KCNV2", "PubChem SID": "SID131507774", "two-siRNA summed score (-2 to +2)": 0, "Outcome": "inactive"}
{"gene knocked down": "LOC442406", "PubChem SID": "SID131501870", "two-siRNA summed score (-2 to +2)": -1, "Outcome": "inactive"}
{"gene knocked down": "LOC388746", "PubChem SID": "SID131519298", "two-siRNA summed score (-2 to +2)": 1, "Outcome": "inactive"}
{"gene knocked down": "AMFR", "PubChem SID": "SID131507270", "two-siRNA summed score (-2 to +2)": 0, "Outcome": "inactive"}
{"gene knocked down": "CSAG3", "PubChem SID": "SID131520817", "two-siRNA summed score (-2 to +2)": 1, "Outcome": "inactive"}
{"gene knocked down": "ADRA2B", "PubChem SID": "SID131519878", "two-siRNA summed score (-2 to +2)": 1, "Outcome": "inactive"}
{"gene knocked down": "SETMAR", "PubChem SID": "SID131504146", "two-siRNA summed score (-2 to +2)": 0, "Outcome": "inactive"}
{"gene knocked down": "CNTN4", "PubChem SID": "SID131522679", "two-siRNA summed score (-2 to +2)": 1, "Outcome": "inactive"}
{"gene knocked down": "LOC220416", "PubChem SID": "SID131520274", "two-siRNA summed score (-2 to +2)": 1, "Outcome": "inactive"}
{"gene knocked down": "NUF2", "PubChem SID": "SID131516127", "two-siRNA summed score (-2 to +2)": 0, "Outcome": "inactive"}
{"gene knocked down": "LOC441353", "PubChem SID": "SID131507423", "two-siRNA summed score (-2 to +2)": 0, "Outcome": "inactive"}
{"gene knocked down": "HLTF", "PubChem SID": "SID131510846", "two-siRNA summed score (-2 to +2)": 0, "Outcome": "inactive"}
{"gene knocked down": "YBX1", "PubChem SID": "SID131510309", "two-siRNA summed score (-2 to +2)": 0, "Outcome": "inactive"}
{"gene knocked down": "CAVIN2", "PubChem SID": "SID131515169", "two-siRNA summed score (-2 to +2)": 0, "Outcome": "inactive"}
{"gene knocked down": "HIF1A", "PubChem SID": "SID131521831", "two-siRNA summed score (-2 to +2)": 1, "Outcome": "inactive"}
{"gene knocked down": "CLEC1A", "PubChem SID": "SID131502913", "two-siRNA summed score (-2 to +2)": 0, "Outcome": "inactive"}
{"gene knocked down": "TFRC", "PubChem SID": "SID131510202", "two-siRNA summed score (-2 to +2)": 0, "Outcome": "inactive"}
{"gene knocked down": "LOC440414", "PubChem SID": "SID131521536", "two-siRNA summed score (-2 to +2)": 1, "Outcome": "inactive"}
{"gene knocked down": "MYOD1", "PubChem SID": "SID131504857", "two-siRNA summed score (-2 to +2)": 0, "Outcome": "inactive"}
{"gene knocked down": "LOC442216", "PubChem SID": "SID131506839", "two-siRNA summed score (-2 to +2)": 0, "Outcome": "inactive"}
{"gene knocked down": "FBXO21", "PubChem SID": "SID131506405", "two-siRNA summed score (-2 to +2)": 0, "Outcome": "inactive"}
{"gene knocked down": "ZNF451", "PubChem SID": "SID131521792", "two-siRNA summed score (-2 to +2)": 1, "Outcome": "inactive"}
{"gene knocked down": "LOC440333", "PubChem SID": "SID131522602", "two-siRNA summed score (-2 to +2)": 1, "Outcome": "inactive"}
{"gene knocked down": "SCAMP4", "PubChem SID": "SID131501253", "two-siRNA summed score (-2 to +2)": -1, "Outcome": "inactive"}
{"gene knocked down": "JAG2", "PubChem SID": "SID131506189", "two-siRNA summed score (-2 to +2)": 0, "Outcome": "inactive"}
{"gene knocked down": "PIP5KL1", "PubChem SID": "SID131522780", "two-siRNA summed score (-2 to +2)": 1, "Outcome": "inactive"}
{"gene knocked down": "LOC390335", "PubChem SID": "SID131510029", "two-siRNA summed score (-2 to +2)": 0, "Outcome": "inactive"}
{"gene knocked down": "VEGFC", "PubChem SID": "SID131509796", "two-siRNA summed score (-2 to +2)": 0, "Outcome": "inactive"}
{"gene knocked down": "LOC150356", "PubChem SID": "SID131505058", "two-siRNA summed score (-2 to +2)": 0, "Outcome": "inactive"}
{"gene knocked down": "DOK2", "PubChem SID": "SID131513825", "two-siRNA summed score (-2 to +2)": 0, "Outcome": "inactive"}
